Amino acid sequences for entries named in this document (tags omitted).
UniProt P53350, whole entry, looked up: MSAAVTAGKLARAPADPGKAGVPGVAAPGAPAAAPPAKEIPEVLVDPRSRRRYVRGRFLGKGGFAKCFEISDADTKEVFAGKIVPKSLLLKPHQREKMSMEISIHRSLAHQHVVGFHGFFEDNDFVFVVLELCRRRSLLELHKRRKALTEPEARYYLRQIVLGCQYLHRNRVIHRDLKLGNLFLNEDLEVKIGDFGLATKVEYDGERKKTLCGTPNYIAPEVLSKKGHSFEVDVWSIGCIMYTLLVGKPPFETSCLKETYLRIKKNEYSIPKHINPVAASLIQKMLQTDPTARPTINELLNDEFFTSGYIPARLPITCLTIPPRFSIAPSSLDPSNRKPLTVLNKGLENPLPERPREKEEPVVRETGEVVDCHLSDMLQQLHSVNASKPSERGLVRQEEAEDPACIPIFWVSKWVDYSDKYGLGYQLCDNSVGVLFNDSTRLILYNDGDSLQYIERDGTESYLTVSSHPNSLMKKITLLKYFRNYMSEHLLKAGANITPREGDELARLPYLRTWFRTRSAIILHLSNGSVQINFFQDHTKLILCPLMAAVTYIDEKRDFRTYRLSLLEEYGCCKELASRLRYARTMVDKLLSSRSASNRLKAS

The campaign covered roughly 360,000 compounds. About 10,000 (2.8%) were called active. Inconclusive means that the source gave no clear call. Such entries were picked first, then a sample of the others. Calls follow the shape of the dose curve; as a rule, active = well fitted inhibition curve with a large enough effect; inconclusive = small, poorly fitted or top-dose-only effect; inactive = flat fitted curve, though single readings scatter. Potencies beside an inconclusive call are fits to weak or partial responses and may not hold up.
The molecules below were run against Serine/threonine-protein kinase PLK1 (Homo sapiens) (UniProt P53350) (assay: qHTS for Inhibitors of PLK1-PDB (polo-like kinase 1 - polo-box domain): Primary Screen). Conditions: Plk1 PBD binding of FITC phosphopeptide, fluorescence polarization.
`Cc1sc(N)nc1-c1cccs1` was tested, and the Potency was inconclusive: 21.2 µM [inhibitor, partial curve].
`C=C(C)CCOC(=O)C(CC(=O)O)NCc1ccco1` (stereo unspecified) was tested, and the Potency was inconclusive: 26.7 µM [inhibitor, partial curve].
`CNc1cc(N2CCN(S(=O)(=O)N(C)C)CC2)ccc1[N+](=O)[O-]` was tested, and the max response, negative = inhibition was inactive: 1.3%.
In the case of `O=C(CSc1n[nH]c(=O)[nH]c1=O)Nc1ccc(SC(F)F)cc1`, the Potency is reported as inconclusive: 29.9 µM [inhibitor, partial curve].
For `CC(=NNC(=S)N1CC2CCC(CC2)C1)c1ccccn1`, the max response, negative = inhibition was inactive: 0%.
With `CC(=O)N1CCc2c(sc(NC(=O)c3ccc([N+](=O)[O-])o3)c2C(N)=O)C1` the Potency was inconclusive: 33.6 µM [inhibitor, partial curve].
In the case of `CCOC(=O)C(CCCCOc1cccc(CC)c1)C(=O)OCC`, the Potency is reported as inconclusive: 21.2 µM [inhibitor, partial curve].
With `C#CCOc1ccc(/C=C2/C(=O)ON=C2C)cc1Cl` the Potency was active: 2.12 µM.
`CCn1c(COc2ccc3ccccc3c2C)nnc1SCC(=O)Nc1cccc(C(=O)O)c1` was tested, and the Potency was inconclusive: 75.2 µM [inhibitor, partial curve].
With `Cc1ccc(S(=O)(=O)N2[C@@H](c3ccc(Br)cc3)C(C(=O)O)=CC[C@H]2c2cccc(Cl)c2)cc1` the Potency was inconclusive: 26.7 µM [inhibitor, single point].
In the case of `COc1ccc(NS(=O)(=O)c2cccc(C(=O)NCc3ccccn3)c2)cc1`, the max response, negative = inhibition is reported as inactive: 0.141%.
`CC(Sc1cccc[n+]1[O-])C(=O)Nc1cccc([N+](=O)[O-])c1` (stereo unspecified) was tested, and the Potency was inconclusive: 37.7 µM [inhibitor, partial curve].
With `Cn1c(=O)c2cn3c(c2n(C)c1=O)C(c1ccccc1)CC(c1ccccc1)=N3` (stereo unspecified) the Potency was inconclusive: 23.8 µM [inhibitor, single point].
For `COc1cccc(NC(C)=[N+](C)CCNS(=O)(=O)c2ccc(Cl)cc2)c1`, the max response, negative = inhibition was inconclusive: -36.7% [inhibitor].
With `COc1cccc(NC(=O)C(OC(=O)c2cnc(C)cn2)c2ccccc2)c1` (stereo unspecified) the max response, negative = inhibition was inactive: -8.65%.
`Cc1ccc(/C=C/c2ccc(N(C)C)cc2)[n+](C)c1` was tested, and the max response, negative = inhibition was inactive: 33.6%.
For `Cc1c(Cl)cccc1S(=O)(=O)N1CCC(C(=O)NNC(=O)C2CC2)CC1`, the Potency was active: 23.8 µM.
In the case of `COc1ccc(C(=O)O)cc1S(=O)(=O)N(C)CCc1ccccn1`, the max response, negative = inhibition is reported as inactive: -5.52%.
With `CCC/C(=N/NC(=O)c1nnn(-c2nonc2N)c1CN1CCCCC1)c1ccccc1` the Potency was active: 26.7 µM.
With `CC(=O)c1ccc(C(=O)N2CCc3c([nH]c4ccccc34)C2c2ccccn2)s1` (stereo unspecified) the max response, negative = inhibition was inactive: -8.47%.
With `Nc1nc2c(s1)CCc1ccccc1-2` the Potency was inconclusive: 21.2 µM [inhibitor, partial curve].
`Cn1c(-c2ccc(Br)o2)nc2cc(Br)ccc21` was tested, and the Potency was inconclusive: 23.8 µM [inhibitor, partial curve].
With `COc1cc(C)c(C(=O)Oc2cc(C)c(C(=O)O)c(O)c2)c(O)c1` the max response, negative = inhibition was inconclusive: -30.4% [inhibitor].
In the case of `CCOC(=O)C(Cc1ccccc1)C(=O)Nc1ccc(N(CC)CC)cc1` (stereo unspecified), the max response, negative = inhibition is reported as inactive: -1.24%.
For `O=c1c2ccccc2nc2oc3ccccc3n12`, the Potency was inconclusive: 15 µM [inhibitor, partial curve].
For `Cc1ccc(C(=O)Cn2nnc(-c3ccccc3)n2)cc1`, the Potency was inconclusive: 21.2 µM [inhibitor, partial curve].
`Cc1ncc([N+](=O)[O-])n1CC(=O)Nc1ccccc1F` was tested, and the max response, negative = inhibition was inconclusive: -34.3% [inhibitor].
For `COC(=O)CSc1nc(-c2cccs2)ccc1C#N`, the Potency was inconclusive: 15.8 µM [inhibitor, partial curve].
For `COc1ccc(C(=O)/C=C/C(=O)N(CC(=O)NC2CCCCC2)Cc2cccs2)c(O)c1`, the Potency was active: 6.7 µM.
`O=C(O)CSC(=S)N1CCCCC1` was tested, and the Potency was inconclusive: 21.2 µM [inhibitor, partial curve].
With `CC12CCC(C)(c3nc4ccccc4nc31)C2(C)C` the Potency was active: 29.9 µM.
In the case of `O=C(CCCOc1ccc(Cl)cc1)N1CCOCC1`, the Potency is reported as inconclusive: 21.2 µM [inhibitor, partial curve].
With `O=C(CSc1nnc(-c2ccc3c(c2)OCCO3)o1)N1CCCC1` the Potency was inconclusive: 29.9 µM [inhibitor, partial curve].
In the case of `Cc1ccc(C)c(NC(=O)c2ccc3c(c2)N(Cc2ccc(F)cc2)C(=O)CS3=O)c1` (stereo unspecified), the max response, negative = inhibition is reported as inactive: -1.41%.
With `Cc1ccc(-c2ccc(=O)n(Cc3cc(C)ccc3C)n2)cc1` the Potency was inconclusive: 37.7 µM [inhibitor, partial curve].
With `COc1ccc2c(c1)C1=NN(/C(C)=C\C(C)=O)C(c3ccccc3)C1CC2` (stereo unspecified) the max response, negative = inhibition was inconclusive: -31.7% [inhibitor].
`C/C(=N/NS(=O)(=O)c1cccc([N+](=O)[O-])c1)c1ccncc1` was tested, and the Potency was active: 2.99 µM.
`O=C(O)Cc1ccc(NC(=O)c2ccc3c(c2)C(=O)N(Cc2ccco2)C3=O)cc1` was tested, and the max response, negative = inhibition was inconclusive: -34.4% [inhibitor].
`O=C(CSc1ccsc1[N+](=O)[O-])N1CCN(c2ccccn2)CC1` was tested, and the Potency was inconclusive: 33.6 µM [inhibitor, partial curve].
For `COC(=O)c1cnc(N)s1`, the Potency was inconclusive: 26.7 µM [inhibitor, partial curve].
`Cc1ccc(CCSc2ccc(F)cc2)cn1` was tested, and the Potency was inconclusive: 8.44 µM [inhibitor, partial curve].
In the case of `Cc1ccc2nc3c(cc(S(=O)(=O)c4ccccc4)c(=N)n3C3CCCC3)c(=O)n2c1`, the Potency is reported as inconclusive: 37.7 µM [inhibitor, single point].
For `Cc1cccc(C)c1OCCN1CCCC1`, the max response, negative = inhibition was inactive: 3.55%.
With `Cc1cc(C)n(CC(C)Nc2nc3nonc3nc2N2CCCCC2)n1` (stereo unspecified) the Potency was inconclusive: 18.9 µM [inhibitor, partial curve].
For `CCC(C)(C)NC(=O)C(c1cccs1)N(C(=O)c1ccn[nH]1)c1ccccc1` (stereo unspecified), the Potency was inconclusive: 42.3 µM [inhibitor, partial curve].
In the case of `O=C(O)c1cccc2c1C(=O)c1ccc(-c3ccc(F)cc3OCc3ccccc3)cc1S2(=O)=O`, the Potency is reported as active: 21.2 µM.

Reference: PubChem BioAssay AID720504 (National Center for Advancing Translational Sciences (NCATS), 2013)
% is scaled to controls: 0 for no effect and ±100 for the full control effect; potency is read from the fitted curve at half-maximal effect.
Also: nearly all actives have a fitted effect of over 65% in size.
For max response, negative = inhibition in this document: series mostly up to about 57 µM.
